Results reported in PubChem BioAssay AID330 (DTP/NCI, 2004).
The list shows only some results of the screen, not a fair sample: it is rich in T/C values a quarter to a half above the control, in often repeated tests (any T/C) and in doses without a T/C. Other doses and runs of a compound stand elsewhere. T/C: endpoint of the treated group in % of that of the vehicle group. Some doses have a count of surviving animals in place of a T/C: the source holds a T/C of zero for them, seemingly a mark for toxic or unscored doses. Some survivor counts are full or nearly so, which does not show that the dose was tolerated: the source hardly ever lists a survival T/C far under the control, and the zero likely stands for such cases as well. Counts of survivors are from the toxicity check (mostly the fifth day) where no day follows; animals may have died later. Schedule codes are those of the source, taken here to give the interval after Q, in days (D) or hours (H), and the number of doses after X. For survival time, this PubChem deposit counts one and a half times the control or more as active, and values a quarter to a half above the control carry no call in these data; other NCI protocols may use other cut-offs. Some T/C values are followed by the survivors on the day toxicity was checked, most often the fifth; where none is given, no animal had died by that day. Some doses were run more than once; the results are listed from low to high. Additions like (4×) give the number of equal values in this list.

System: P388 leukemia ip, CD2F1 mice, survival T/C
Test: NCI In Vivo Anticancer Drug Screen. Data for tumor model P388 Leukemia (intraperitoneal) in CD2F1 (CDF1) mice
Details: T/C endpoint: median survival time, higher T/C = longer survival

## CC[C@]1(O)C[C@H]2CN(CCc3c([nH]c4ccccc34)[C@@](C(=O)OC)(c3cc4c(cc3OC)N(C=O)[C@H]3[C@@](O)(C(=O)OC)[C@H](OC(C)=O)[C@]5(CC)C=CCN6CC[C@]43[C@@H]65)C2)C1
dose: 0.03 mg/kg/injection, schedule: Q01DX009 (ip), vehicle: water
  T/C: 108, 141, 142, 144, 180 % of control
dose: 0.06 mg/kg/injection, schedule: Q01DX009 (ip), vehicle: saline, evaluated on day 5
  T/C: 168 % of control
dose: 0.06 mg/kg/injection, schedule: Q01DX009 (ip), vehicle: saline, evaluated on day 30
  T/C: 145 and 190 % of control
dose: 0.06 mg/kg/injection, schedule: Q01DX009 (ip), vehicle: saline, evaluated on day 60
  T/C: 172 % of control
dose: 0.06 mg/kg/injection, schedule: Q01DX009 (ip), vehicle: water
  T/C: 118, 137, 144, 147, 150, 185, 207 % of control
dose: 0.06 mg/kg/injection, schedule: Q04DX003 (ip), vehicle: saline
  T/C: 140 % of control
dose: 0.11 mg/kg/injection, schedule: Q01DX005 (ip), vehicle: saline
  T/C: 125 % of control
dose: 0.12 mg/kg/injection, schedule: Q01DX009 (ip), vehicle: saline, evaluated on day 5
  T/C: 172 % of control
dose: 0.12 mg/kg/injection, schedule: Q01DX009 (ip), vehicle: saline, evaluated on day 30
  T/C: 125 and 205 % of control
dose: 0.12 mg/kg/injection, schedule: Q01DX009 (ip), vehicle: saline, evaluated on day 60
  T/C: 172 % of control
dose: 0.12 mg/kg/injection, schedule: Q01DX009 (ip), vehicle: water
  T/C: 125 % of control
dose: 0.13 mg/kg/injection, schedule: Q01DX009 (ip), vehicle: water
  T/C: 123, 132, 149, 151, 157, 195 % of control
dose: 0.2 mg/kg/injection, schedule: Q01DX005 (ip), vehicle: saline
  T/C: 147 % of control
dose: 0.2 mg/kg/injection, schedule: Q01DX009 (ip), vehicle: saline
  T/C: 137 % of control [5 of 6 alive]
dose: 0.2 mg/kg/injection, schedule: Q04DX003 (ip), vehicle: water
  T/C: 149 % of control
dose: 0.25 mg/kg/injection, schedule: Q01DX001 (ip), vehicle: saline, evaluated on day 5
  T/C: 132 % of control
dose: 0.25 mg/kg/injection, schedule: Q01DX001 (ip), vehicle: saline, evaluated on day 30
  T/C: 126, 137 (2×), 148, 150 (2×), 151, 157 % of control
dose: 0.25 mg/kg/injection, schedule: Q01DX001 (ip), vehicle: water, evaluated on day 5
  T/C: 127 and 139 % of control
dose: 0.25 mg/kg/injection, schedule: Q01DX001 (ip), vehicle: water, evaluated on day 30
  T/C: 134, 142, 144 % of control
dose: 0.25 mg/kg/injection, schedule: Q01DX009 (ip), vehicle: saline, evaluated on day 5
  T/C: 205 % of control
dose: 0.25 mg/kg/injection, schedule: Q01DX009 (ip), vehicle: saline, evaluated on day 30
  T/C: 97 and 150 % of control
dose: 0.25 mg/kg/injection, schedule: Q01DX009 (ip), vehicle: saline, evaluated on day 60
  T/C: 209 % of control
dose: 0.25 mg/kg/injection, schedule: Q01DX009 (ip), vehicle: water
  T/C: 97, 108, 144, 169, 183, 192, 224 % of control
dose: 0.25 mg/kg/injection, schedule: Q04DX003 (ip), vehicle: saline, evaluated on day 5
  T/C: 163 % of control
dose: 0.25 mg/kg/injection, schedule: Q04DX003 (ip), vehicle: saline, evaluated on day 9
  T/C: 119, 123, 125 % of control
dose: 0.25 mg/kg/injection, schedule: Q04DX003 (ip), vehicle: saline, evaluated on day 30
  T/C: 178 % of control
dose: 0.25 mg/kg/injection, schedule: Q04DX003 (ip), vehicle: saline, evaluated on day 35
  T/C: 167 % of control
dose: 0.25 mg/kg/injection, schedule: Q04DX003 (ip), vehicle: saline, evaluated on day 45
  T/C: 160, 162, 174 % of control
dose: 0.25 mg/kg/injection, schedule: Q04DX003 (ip), vehicle: saline, evaluated on day 60
  T/C: 172 % of control
dose: 0.26 mg/kg/injection, schedule: Q04DX003 (ip), vehicle: saline
  T/C: 143, 144, 147 % of control
dose: 0.3 mg/kg/injection, schedule: Q01DX005 (ip), vehicle: saline
  T/C: 126 % of control
dose: 0.4 mg/kg/injection, schedule: Q01DX009 (ip), vehicle: saline
  survivor count: 6 of 6
dose: 0.43 mg/kg/injection, schedule: Q04DX003 (ip), vehicle: saline
  T/C: 145, 165, 166, 170 % of control
dose: 0.5 mg/kg/injection, schedule: Q01DX001 (ip), vehicle: Klucel (hydroxypropylcellulose) (HPC)
  T/C: 134 and 142 % of control
dose: 0.5 mg/kg/injection, schedule: Q01DX001 (ip), vehicle: saline with Tween-80
  T/C: 131 % of control
dose: 0.5 mg/kg/injection, schedule: Q01DX001 (ip), vehicle: saline, evaluated on day 5
  T/C: 119, 124, 133, 137, 141 (2×), 144, 145 % of control
dose: 0.5 mg/kg/injection, schedule: Q01DX001 (ip), vehicle: saline, evaluated on day 30
  T/C: 127, 131, 135 (2×), 145, 150, 155, 160, 161, 162, 166, 178 % of control (2×)
dose: 0.5 mg/kg/injection, schedule: Q01DX001 (ip), vehicle: water, evaluated on day 3
  T/C: 149 % of control
dose: 0.5 mg/kg/injection, schedule: Q01DX001 (ip), vehicle: water, evaluated on day 5
  T/C: 136, 138, 143, 145 (2×), 146, 156 % of control
dose: 0.5 mg/kg/injection, schedule: Q01DX001 (ip), vehicle: water, evaluated on day 6
  T/C: 131, 135, 150 % of control
dose: 0.5 mg/kg/injection, schedule: Q01DX001 (ip), vehicle: water, evaluated on day 10
  T/C: 108 % of control
dose: 0.5 mg/kg/injection, schedule: Q01DX001 (ip), vehicle: water, evaluated on day 20
  T/C: 140 % of control
dose: 0.5 mg/kg/injection, schedule: Q01DX001 (ip), vehicle: water, evaluated on day 30
  T/C: 129, 130 (2×), 133 (2×), 133 [5 of 6 alive], 135 (3×), 136 (4×), 138, 139 (2×), 142, 143 (3×), 145, 146 (3×), 149, 155 (2×), 159 [4 of 6 alive], 160, 161, 163 (3×), 171 % of control
dose: 0.5 mg/kg/injection, schedule: Q01DX001 (ip), vehicle: water, evaluated on day 35
  T/C: 126 % of control
dose: 0.5 mg/kg/injection, schedule: Q01DX001 (iv), vehicle: saline
  T/C: 131 % of control
dose: 0.5 mg/kg/injection, schedule: Q01DX005 (ip), vehicle: saline, evaluated on day 5
  T/C: 135 % of control
dose: 0.5 mg/kg/injection, schedule: Q01DX005 (ip), vehicle: saline, evaluated on day 9
  T/C: 117 % of control
dose: 0.5 mg/kg/injection, schedule: Q01DX005 (ip), vehicle: saline, evaluated on day 45
  T/C: 206 and 207 % of control
